Data published in US20240209016A1, “FLUORESCENT NUCLEOSIDE PHOSPHATES” (STEALTH LABELS BIOTECH AB, priority 2021, published 2024).
Some entries share one result that the patent states for a list of compounds.

Tested on: Huh-7 cells
Assay: alamarBlue cell viability (metabolic activity) assay
Type: cell-based
Details: 10 μM, 24 h exposure
Procedure: The Huh-7 human liver cell line was used.
After 24 h exposure with compounds 7 or 17, the conditioned medium was removed from the cells and used for the LDH leakage assay (see below). Freshly prepared alamarBlue cell viability reagent (Invitrogen, diluted 1:10 in CCM) was added, followed by incubation for 3 h at 37° C. and 5% CO2. The resulting resorufin fluorescence was read using an Optima Fluostar plate reader (BMG Labtech) Ex: 544 nm/Em: 590 nm. Dimethyl sulfoxide 5% and CCM alone (i.e. compounds 7 and 17 0 μM) were used as positive and negative controls for cell death, respectively.

## ((2R,3S,4R,5R)-5-(8-cyano-2,3,5,6-tetraazaaceanthrylen-2(6H)-yl)-3,4-dihydroxytetrahydrofuran-2-yl)methyl hydrogen triphosphate [2CNqATP]
  cell death (alamarBlue): ≤ 20%
